Measured values taken from US12584173B2, “Methods for disease treatment and drug discovery” (The Scripps Research Institute, priority 2018, dated 2026).

Test system: NPC1
Experiment: molecular variogram / VSP analysis of 48 NPC1 variants with and without SAHA
Design: species or system human
Settings: with SAHA
From the text: To generate phenotype landscapes that allow us to discover sequence-to-function-to-structure relationships for the entire polypeptide chain at atomic resolution, the training set comprising each of the 48 variant's normalized linear position in the NPC1 polypeptide sequence (referred to as VarSeqP) was plotted as an input value on the x-axis genotype coordinate. To assess the relationship of each genotype to function, we assigned as the y-axis input the known value of each variant's ChoI measurement. Distance values defined by VarSeqP-ChoI spatial relationship provide the first layer of spatial information for the analysis and show how ChoI homeostasis is influenced by a variant's sequence position. These 2D plots illustrate the striking change that occurs in such simple spatial relationships in response to SAHA where we detect a compaction of spatial relationships reflecting a substantial decrease in the ability of most variants to disrupt cholesterol homeostasis.
To address the spatial relationship between VarSeqP-ChoI measurements and trafficking given the importance of cellular location in proper of management of cholesterol by NPC1, an input z-value was assigned the known TrIdx value for each variant. The spatial relationship of the z-axis to each VarSeqP-ChoI value provides the second layer of spatial information that can now link variant sequence position and its impact on ChoI to the TrIdx, that is, its cellular location. The spatial relationships based on both distance and spatial variance for all possible 1128 variant pairwise combinations were modeled by a molecular variogram. […] Spatial relationships within the range are more dependent on one another (i.e., they covary with each other), while spatial relationships extending beyond the range are not correlated and of lower value in VSP in interpreting genotype to phenotype relationships. […] Moreover, the spatial variance (the plateau) of the TrIdx is reduced by 40%.
To assign a value to cholesterol homeostasis based on the TrIdx response to NPC1 variants, we flipped the biological features used for y-axis and z-axis. […] By reducing the inter-dependency of sequence modules that leads to disease phenotype in untreated cells, SAHA resolves the problem imposed by variant disrupted folding intermediates.

O=C(CCCCCCC(=O)Nc1ccccc1)NO [SAHA, Vorinostat]
reduction of the spatial variance (the plateau) of the TrIdx: 40%
reduction of the spatial variance of the ChoI value: ~70%
range of the ChoI molecular variogram (0.08 without): 0.02
range of the TrIdx molecular variogram (~250 amino acids without): about 40 amino acids
